The list is a part of this screen's results and no random one: it gathers tests that were run many times, whatever their T/C, doses with no T/C, and many T/C values between a quarter and a half above the control. Other doses and runs of a compound stand elsewhere. T/C gives the treated animals as a percentage of the vehicle group. Some entries give survivors of the animals treated and no T/C: the source holds a T/C of zero for them, seemingly a mark for toxic or unscored doses. Some doses without a T/C left all or most animals alive at the check, yet need not have been tolerated: survival well below the control is almost never listed, so the zero probably covers shortened survival too. Counts of survivors are from the toxicity check (mostly the fifth day) where no day follows; animals may have died later. Schedule codes are those of the source, read here as Q, the interval in days (D) or hours (H), X, the number of doses. Some entries hold several experiments; the results are listed from low to high. For survival time, this PubChem deposit counts one and a half times the control or more as active, and values a quarter to a half above the control carry no call in these data; other NCI protocols may use other cut-offs. Marks such as (2×) say how often a value occurs here. Some T/C values carry the count of animals alive at the toxicity check (mostly the fifth day); without a count, all were alive then.
System: P388 leukemia ip, CD2F1 mice, survival T/C
Assay: NCI In Vivo Anticancer Drug Screen. Data for tumor model P388 Leukemia (intraperitoneal) in CD2F1 (CDF1) mice
Conditions: T/C endpoint: median survival time, higher T/C = longer survival
[1] = dose: 200.0 mg/kg/injection, schedule: Q01DX009 (ip), vehicle: saline with Tween-80
[2] = dose: 50.0 mg/kg/injection, schedule: Q01DX009 (ip), vehicle: Klucel (hydroxypropylcellulose) (HPC)
[3] = dose: 100.0 mg/kg/injection, schedule: Q01DX009 (ip), vehicle: Klucel (hydroxypropylcellulose) (HPC)
[4] = dose: 200.0 mg/kg/injection, schedule: Q01DX009 (ip), vehicle: Klucel (hydroxypropylcellulose) (HPC)

CCCCOc1ccc2nc(C)cc(N/N=C/c3ccc(OC)c4ccccc34)c2c1
survivor count (dose: 100.0 mg/kg/injection, schedule: Q01DX005 (ip), vehicle: Klucel (hydroxypropylcellulose) (HPC)): 5 of 6
survivor count (dose: 200.0 mg/kg/injection, schedule: Q01DX005 (ip), vehicle: Klucel (hydroxypropylcellulose) (HPC)): 0 of 6

O=Cc1c(-c2ccc(-c3ccccc3)cc2)nc2n1CCS2
survivor count (dose: 400.0 mg/kg/injection, schedule: Q01DX001 (ip), vehicle: Klucel (hydroxypropylcellulose) (HPC)): 6 of 6

BrCC1(CBr)OCCO1
survivor count (dose: 100.0 mg/kg/injection, schedule: Q01DX009 (ip), vehicle: saline with Tween-80): 0 of 6
survivor count [1]: 0 of 6

COc1cc(/C=N\N=C\c2cc(OC)c(OC)c(OC)c2)cc(OC)c1OC
survivor count (dose: 100.0 mg/kg/injection, schedule: Q04DX003 (ip), vehicle: saline with Tween-80): 6 of 6
survivor count (dose: 400.0 mg/kg/injection, schedule: Q04DX003 (ip), vehicle: saline with Tween-80): 6 of 6

CCOC(=O)C1OC(C2(C)OC3(OC4(C=CC3O)OC(C(C)C(=O)C(C)C(O)C(C)CC(C)c3c(Cl)cc(C)c(O)c3C(=O)O)C(C)CC4C)C(C)C2OC)CC1O (centres undefined)
survivor count (dose: 5.0 mg/kg/injection, schedule: Q01DX005 (ip), vehicle: Klucel (hydroxypropylcellulose) (HPC)): 5 of 6
survivor count (dose: 10.0 mg/kg/injection, schedule: Q01DX005 (ip), vehicle: Klucel (hydroxypropylcellulose) (HPC)): 0 of 6

O=C(Nc1ccc(Cl)cc1)OCC12COCN1COC2
survivor count [1]: 3 of 6

Cc1cc(C)c(S(=O)(=O)OCC2OC(OC3(COS(=O)(=O)c4c(C)cc(C)cc4C)OC(COS(=O)(=O)c4c(C)cc(C)cc4C)C(O)C3O)C(O)C(O)C2O)c(C)c1 (centres undefined)
survivor count [2]: 6 of 6
survivor count [3]: 4 of 6 and 6 of 6
survivor count [4]: 6 of 6

COc1cccc2c1C(=O)c1c(O)c3c(c(O)c1C2=O)C[C@@](O)(C(C)=O)C[C@@H]3OC1CC(N(C)C)C(O)C(C)O1 (some centres undefined)
T/C (dose: 0.25 mg/kg/injection, schedule: Q01DX009 (ip), vehicle: water): 136 % of control
T/C (dose: 0.5 mg/kg/injection, schedule: Q01DX009 (ip), vehicle: water): 149 % of control
T/C (dose: 2.5 mg/kg/injection, schedule: Q01DX001 (ip), vehicle: water): 125 % of control
T/C (dose: 2.5 mg/kg/injection, schedule: Q04DX003 (ip), vehicle: water): 130 % of control
T/C (dose: 3.6 mg/kg/injection, schedule: Q04DX003 (ip), vehicle: water): 147 % of control
T/C (dose: 5.0 mg/kg/injection, schedule: Q01DX001 (ip), vehicle: water): 127 % of control
survivor count (dose: 8.0 mg/kg/injection, schedule: Q01DX009 (ip), vehicle: water): 6 of 6
T/C (dose: 10.0 mg/kg/injection, schedule: Q04DX003 (ip), vehicle: water, evaluated on day 30): 145 % of control
T/C (dose: 10.0 mg/kg/injection, schedule: Q04DX003 (ip), vehicle: water, evaluated on day 45): 141 % of control
survivor count (dose: 16.0 mg/kg/injection, schedule: Q01DX009 (ip), vehicle: water): 6 of 6
T/C (dose: 20.0 mg/kg/injection, schedule: Q04DX003 (ip), vehicle: water): 138 % of control [5 of 6 alive]
survivor count (dose: 40.0 mg/kg/injection, schedule: Q01DX001 (ip), vehicle: water): 6 of 6
survivor count (dose: 80.0 mg/kg/injection, schedule: Q01DX001 (ip), vehicle: water): 4 of 6

CC(=Nc1c(C)noc1/C=C/c1ccccc1)NO
survivor count (dose: 200.0 mg/kg/injection, schedule: Q04DX002 (ip), vehicle: saline with Tween-80): 6 of 6
survivor count (dose: 400.0 mg/kg/injection, schedule: Q04DX002 (ip), vehicle: saline with Tween-80): 6 of 6

Nc1ccc(N=Nc2ccncc2)c2ccccc12
survivor count (dose: 200.0 mg/kg/injection, schedule: Q01DX005 (ip), vehicle: saline with Tween-80): 3 of 6

NC(Cc1cccc(F)c1)c1nn[nH]n1 (centres undefined)
survivor count (dose: 200.0 mg/kg/injection, schedule: Q04DX003 (ip), vehicle: saline with Tween-80): 0 of 6

c1cnc2nc3c4ccccc4c4ccccc4c3nc2c1
survivor count (dose: 400.0 mg/kg/injection, schedule: Q01DX009 (ip), vehicle: saline with Tween-80): 2 of 6

Cc1ccc(S(=O)(=O)C(=S)N(C)N(C)C)cc1
T/C [2]: 126 % of control (2×)
survivor count [3]: 1 of 6
survivor count [4]: 0 of 6

Source: PubChem BioAssay AID330 (DTP/NCI, 2004)
